Data as given in PubChem BioAssay AID1671195 (Yale University, 2021)

Screen: 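Regulators of LDL receptor activity judged by labelled LDL uptake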 (primary screen)
Cells: human Huh7 hepatoma cells
Reagents: siRNA pool against human genes, 18 nM
Time to read-out: about 2 to 2.5 days of knockdown, then 8 h LDL uptake
Treatment: DiI-labelled LDL at 30 µg/ml for 8 h, in lipoprotein-deficient serum medium
Measurement: 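Fluorescent LDL signal imaged in cells, scaled to the plate median, robust z-score for each replicate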
Direction: robust z-score: higher = more LDL uptake after knockdown
Hit rule: 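a gene counts as active if at least two replicate z-scores exceed ±2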
This is a random part of about 22,000 reagents tested. In the full data, about 1,510 (6.9%) are marked active. 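Active includes knockdowns raising or lowering LDL uptake; positive z-scores mean more uptake, negative mean less.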 A number with no mark means an inactive call.

DGKK
- robust z-score, replicate 1: -0.572
- robust z-score, replicate 2: 0.15
- robust z-score, replicate 3: -0.246

C1orf115
- robust z-score, replicate 1: -0.47
- robust z-score, replicate 2: -0.821
- robust z-score, replicate 3: -0.453

MED9
- robust z-score, replicate 1: 1.61
- robust z-score, replicate 2: -0.359
- robust z-score, replicate 3: 0.33

BPIFB4
- robust z-score, replicate 1: -0.609
- robust z-score, replicate 2: 0.00705
- robust z-score, replicate 3: 0.0604

SEMA3A
- robust z-score, replicate 1: 2.43
- robust z-score, replicate 2: 1.48
- robust z-score, replicate 3: 0.173

ESRP1
- robust z-score, replicate 1: 0.221
- robust z-score, replicate 2: -0.116
- robust z-score, replicate 3: -0.0475

CYP4B1
- robust z-score, replicate 1: 0.579
- robust z-score, replicate 2: -0.106
- robust z-score, replicate 3: -0.343

PRDM7
- robust z-score, replicate 1: -0.5
- robust z-score, replicate 2: -1.1
- robust z-score, replicate 3: -0.395

PRKCZ
- robust z-score, replicate 1: -0.936
- robust z-score, replicate 2: -0.345
- robust z-score, replicate 3: -0.428

IGFBP7-AS1
- robust z-score, replicate 1: 7.26 (active)
- robust z-score, replicate 2: 7.35
- robust z-score, replicate 3: 6.44

PRAMEF30P
- robust z-score, replicate 1: -0.687
- robust z-score, replicate 2: -0.793
- robust z-score, replicate 3: 0.336

RPL7P34
- robust z-score, replicate 1: -0.119
- robust z-score, replicate 2: -0.0536
- robust z-score, replicate 3: 0.179

CDAN1
- robust z-score, replicate 1: -0.787
- robust z-score, replicate 2: -0.572
- robust z-score, replicate 3: -0.594

LOC441837 (retired record)
- robust z-score, replicate 1: -0.674
- robust z-score, replicate 2: -0.923
- robust z-score, replicate 3: -0.722

ADAM15
- robust z-score, replicate 1: -0.0874
- robust z-score, replicate 2: 0.144
- robust z-score, replicate 3: 0.312

CFAP73
- robust z-score, replicate 1: 0.441
- robust z-score, replicate 2: 1.03
- robust z-score, replicate 3: 0.877

VASH1
- robust z-score, replicate 1: 1.81
- robust z-score, replicate 2: -0.163
- robust z-score, replicate 3: 1.38

TREM2
- robust z-score, replicate 1: -0.774
- robust z-score, replicate 2: -1.11
- robust z-score, replicate 3: -0.701

PTCHD1
- robust z-score, replicate 1: 0.812
- robust z-score, replicate 2: 1.06
- robust z-score, replicate 3: 1.49

MYO9A
- robust z-score, replicate 1: 0.0158
- robust z-score, replicate 2: 0.447
- robust z-score, replicate 3: 0.0694

FBXL18
- robust z-score, replicate 1: 1.44
- robust z-score, replicate 2: 1.93
- robust z-score, replicate 3: 1.33

RNF13
- robust z-score, replicate 1: -0.569
- robust z-score, replicate 2: -1.93
- robust z-score, replicate 3: -0.92

CCDC66
- robust z-score, replicate 1: 0.492
- robust z-score, replicate 2: 0.622
- robust z-score, replicate 3: 0.727

LRRIQ4
- robust z-score, replicate 1: -1.29
- robust z-score, replicate 2: -1.09
- robust z-score, replicate 3: -1.13

TTLL12
- robust z-score, replicate 1: -0.134
- robust z-score, replicate 2: -1.18
- robust z-score, replicate 3: -0.404

ANKRD13B
- robust z-score, replicate 1: -1.01
- robust z-score, replicate 2: -1.08
- robust z-score, replicate 3: -1.22

AP1S3
- robust z-score, replicate 1: -1.33
- robust z-score, replicate 2: -1.6
- robust z-score, replicate 3: -0.834

AK1
- robust z-score, replicate 1: -0.378
- robust z-score, replicate 2: -0.384
- robust z-score, replicate 3: -0.395

TMEM237
- robust z-score, replicate 1: 4.24 (active)
- robust z-score, replicate 2: 4.37
- robust z-score, replicate 3: 4

DEFB130A
- robust z-score, replicate 1: -1.98 (active)
- robust z-score, replicate 2: -2.09
- robust z-score, replicate 3: -1.91

Active calls, of those listed so far:
IGFBP7-AS1
- robust z-score, replicate 1: 7.26 (active)
- robust z-score, replicate 2: 7.35
- robust z-score, replicate 3: 6.44

TMEM237
- robust z-score, replicate 1: 4.24 (active)
- robust z-score, replicate 2: 4.37
- robust z-score, replicate 3: 4

DEFB130A
- robust z-score, replicate 1: -1.98 (active)
- robust z-score, replicate 2: -2.09
- robust z-score, replicate 3: -1.91
